Measurements reported in PubChem BioAssay AID743454 (Peter MacCallum Cancer Centre, 2014).

- Assay: 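Knock-downs lowering viability or raising caspase 3/7 activity in vorinostat-treated resistant cells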 (primary screen)
- System: human HCT116-VR colon cancer cells, selected for vorinostat resistance
- Reagents: siRNA pool against human genes, 40 nM siRNA pool
- Time to read-out: vorinostat for 24 h, read-out about 72 h after transfection
- Challenge: vorinostat at 2.5 µM final
- Measurement: 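Two measures, CellTiter-Fluor viability and luminescent caspase 3/7 activity, each as fold change against same-plate mock wells, mean of duplicates, then screen-wide robust z-score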
- Reading the numbers: viability robust z-score: higher = more viable cells than screen typical; caspase robust z-score: higher = more caspase 3/7 activity than screen typical
- Hit rule: 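Hits are knock-downs in viability class RV1/RV2 or caspase class CA1/CA2, excluding ones that killed cells in the no-drug cell-count arm; hits then retested with single siRNAs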
This is an unselected part of about 18,000 reagents. 450 of them (2.5%) were called active. 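Single biological run; no consistent viability z cut-off exists, so the class columns, not z-scores, define the calls.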 No sequences are given here.

For ZNHIT3, what was measured?
viability hit class: no change; caspase hit class: no change; viability robust z-score: -1.68; caspase robust z-score: 0.79; call: inactive

For KIF19, what does the deposit list?
viability hit class: no change; caspase hit class: no change; viability robust z-score: 0.45; caspase robust z-score: 1.4; call: inactive

What is on record for NUDT21?
viability hit class: no change; caspase hit class: no change; viability robust z-score: -0.74; caspase robust z-score: 0.5; call: inactive

With CDK2, how do the results read?
viability hit class: no change; caspase hit class: no change; viability robust z-score: 0.04; caspase robust z-score: 0.22; call: inactive

For IL22RA1, what was measured?
viability hit class: no change; caspase hit class: no change; viability robust z-score: -0.25; caspase robust z-score: -0.75; call: inactive

What did the screen give for CCZ1?
viability hit class: no change; caspase hit class: no change; viability robust z-score: 1.31; caspase robust z-score: -0.68; call: inactive

For ASIC3, what was measured?
viability hit class: no change; caspase hit class: no change; viability robust z-score: 0.68; caspase robust z-score: 0.84; call: inactive

Which result is listed for DCN?
viability hit class: no change; caspase hit class: no change; viability robust z-score: 0.28; caspase robust z-score: -0.04; call: inactive

How did the screen score TARS2?
viability hit class: no change; caspase hit class: no change; viability robust z-score: 0.74; caspase robust z-score: 0.72; call: inactive

With KRT32, what was measured?
viability hit class: no change; caspase hit class: no change; viability robust z-score: 0.68; caspase robust z-score: 4.26; call: inactive

For DNAJB1, how do the results read?
viability hit class: no change; caspase hit class: no change; viability robust z-score: -2.21; caspase robust z-score: 2.85; call: inactive

For SCAMP3, how do the results read?
viability hit class: no change; caspase hit class: no change; viability robust z-score: 0.44; caspase robust z-score: 2.91; call: inactive

What did the screen give for YIPF6?
viability hit class: no change; caspase hit class: no change; viability robust z-score: -0.57; caspase robust z-score: -0.31; call: inactive

Which result is listed for MARS2?
viability hit class: no change; caspase hit class: no change; viability robust z-score: 1.05; caspase robust z-score: -0.56; call: inactive

How did the screen score SIRPG?
viability hit class: no change; caspase hit class: no change; viability robust z-score: 1.34; caspase robust z-score: 0.44; call: inactive

With SRARP, what does the deposit list?
viability hit class: no change; caspase hit class: no change; viability robust z-score: 0.47; caspase robust z-score: -0.48; call: inactive

For SLC17A8, what was measured?
viability hit class: no change; caspase hit class: no change; viability robust z-score: 0.08; caspase robust z-score: -1.04; call: inactive

What is on record for ARVCF?
viability hit class: no change; caspase hit class: no change; viability robust z-score: -0.22; caspase robust z-score: 2.4; call: inactive

With MRPL23, how do the results read?
viability hit class: no change; caspase hit class: no change; viability robust z-score: 1.06; caspase robust z-score: -0.26; call: inactive

How did the screen score ILDR2?
viability hit class: no change; caspase hit class: no change; viability robust z-score: 0.68; caspase robust z-score: 0.82; call: inactive

What did the screen give for MMP21?
viability hit class: no change; caspase hit class: no change; viability robust z-score: -1.03; caspase robust z-score: 2.63; call: inactive
